PubChem BioAssay AID504834 (National Center for Advancing Translational Sciences (NCATS), 2011)
Hit rate of the full screen: of about 320,000 compounds, about 22,000 (6.9%) were called active. Inconclusive means that the source gave no clear call. Such entries were picked first, then a sample of the others. The call rests on the fitted dose curve; in most records, active means well fitted inhibition curve with a large enough effect; inconclusive means small, poorly fitted or top-dose-only effect, or another doubt; inactive means no such curve, though single readings can be large or run the other way. Where the call is inconclusive, the potency comes from a doubtful curve fit.

assay: Primary qHTS for delayed death inhibitors of the malarial parasite plastid, 96 hour incubation; conditions: P. falciparum luciferase reporter growth; series mostly up to 28.7 µM
In short: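 96 h incubation, 37 C, 5% CO2, of luciferase-reporter P. falciparum-infected RBCs (2% hematocrit, 0.05% parasitemia final) with test compounds; endpoint luminescence.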
Potency means the concentration at half of the fitted maximal effect.

Compound	Potency
COC(=O)c1cccc(NC(=O)c2ccc3c(c2)C(=O)N(Cc2cccnc2)C3=O)c1C	inactive
CC(=O)Nc1ccc(NC(=O)CCCCCn2nnc3ccccc3c2=O)cc1	inactive
c1ccc2c(NCCc3c[nH]c4ccccc34)c3ccccc3nc2c1	active: 3.29 µM
CS(=O)(=O)N1CCN(c2ccc(Cl)cc2[N+](=O)[O-])CC1	inconclusive: 18.5 µM [inhibitor, single point]
CCCOCn1cc(F)c(=O)[nH]c1=O	active: 5.22 µM
Cc1ccc(-c2csc3ncnc(-n4nnc5ccccc54)c23)cc1C	inconclusive: 0.0329 µM [inhibitor, full curve, poor fit]
COc1ccc(CCC(C(O)C(F)(F)F)S(=O)c2ccccc2)cc1 (configuration not stated)	active: 2.08 µM
CCN(CC)S(=O)(=O)c1ccc2c(c1)N(CC(=O)Nc1cccnc1Cl)C(=O)CO2	inactive
Cc1oc2ccccc2c1-c1cn2c(n1)SCC2	inconclusive: 9.28 µM [inhibitor, partial curve]
Cc1cc(NC(=O)CSc2nc3c(sc4ccccc43)c(=O)n2CCc2ccccc2)n[nH]1	inconclusive: 9.28 µM [inhibitor, single point]
COc1ccccc1C1=NOC(CN2C(=O)c3ccccc3S2(=O)=O)C1 (configuration not stated)	inactive
Nc1ncnc2c1ncn2Cc1ccccc1	inconclusive: 18.5 µM [inhibitor, single point]
CC(OC(=O)C1CCN(S(=O)(=O)c2ccc3c(c2)OCCO3)CC1)C(=O)N(C)c1ccccc1 (configuration not stated)	inconclusive: 18.5 µM [inhibitor, single point]
COc1cccc(OCc2nnc(SCc3cc(=O)[nH]c4ccccc34)o2)c1	inconclusive: 18.5 µM [inhibitor, single point]
CCCN1CCC(=O)N([C@H](CSc2ccc(OC)cc2)CC(C)C)CC1	inconclusive: 18.5 µM [inhibitor, single point]
Cc1ccc(S(=O)(=O)c2nc(S(C)(=O)=O)sc2N2CCC(O)CC2)cc1	active: 9.28 µM
COc1ccc(-c2cn3c(C)c(C(=O)N4CCc5ccccc5C4)sc3n2)cc1	inconclusive: 2.33 µM [inhibitor, partial curve, poor fit]
O=C(Nc1nc2cc3c(cc2s1)OCCO3)c1ccc([N+](=O)[O-])o1	active: 8.28 µM
NC(=S)NNC(=S)Nc1ccccc1	inactive
CC(C)CN(C(=O)CCNC(=O)c1ccc(Cl)cc1)c1c(N)n(CC(C)C)c(=O)[nH]c1=O	inconclusive: 14.7 µM [inhibitor, partial curve, poor fit]
Cc1nc2ccccc2nc1NS(=O)(=O)c1ccc(N)cc1	inconclusive: 10.4 µM [inhibitor, partial curve]
CC(=O)c1ccc(S(=O)(=O)N(CCCO)Cc2cc3cc(C)ccc3[nH]c2=O)cc1	inconclusive: 18.5 µM [inhibitor, single point]
CC[C@H](C)[C@H]1O[C@]2(CC[C@@H]1C)C[C@@H]1C[C@@H](C/C=C(\C)[C@H](O[C@@H]3C[C@H](OC)[C@H](O[C@@H]4C[C@H](OC)[C@@H](O)[C@H](C)O4)[C@H](C)O3)[C@@H](C)/C=C/C=C3\CO[C@@H]4[C@H](O)C(C)=C[C@@H](C(=O)O1)[C@]34O)O2	active: 4.78 µM
CN1c2ccccc2C(C)(C)C12C=Cc1cc(O)ccc1O2 (configuration not stated)	inconclusive: 10.4 µM [inhibitor, single point]

4 records drawn at random from the list so far, as already listed:
Compound	Potency
COC(=O)c1cccc(NC(=O)c2ccc3c(c2)C(=O)N(Cc2cccnc2)C3=O)c1C	inactive
CCCN1CCC(=O)N([C@H](CSc2ccc(OC)cc2)CC(C)C)CC1	inconclusive: 18.5 µM [inhibitor, single point]
CC(=O)c1ccc(S(=O)(=O)N(CCCO)Cc2cc3cc(C)ccc3[nH]c2=O)cc1	inconclusive: 18.5 µM [inhibitor, single point]
COc1ccc(-c2cn3c(C)c(C(=O)N4CCc5ccccc5C4)sc3n2)cc1	inconclusive: 2.33 µM [inhibitor, partial curve, poor fit]

Rewritten field by field: entries from further up
COc1ccccc1C1=NOC(CN2C(=O)c3ccccc3S2(=O)=O)C1 (configuration not stated)
  Potency: inactive
Cc1ccc(S(=O)(=O)c2nc(S(C)(=O)=O)sc2N2CCC(O)CC2)cc1
  Potency: active: 9.28 µM

Additional results:

Compound	Potency
COc1ccc(NS(=O)(=O)c2ccc(NC(=O)c3ccccn3)cc2)cc1	inconclusive: 18.5 µM [inhibitor, single point]
CCCCCCCCC/C(=N\O)c1ccccn1	inconclusive: 10.4 µM [inhibitor, single point]
Cc1ccc(CNc2nc3ccccc3s2)s1	inconclusive: 18.5 µM [inhibitor, single point]
Cc1ccc(S(=O)Cc2ccc(C(=O)N3CCN(C(=O)c4ccco4)CC3)o2)cc1 (configuration not stated)	inconclusive: 4.15 µM [inhibitor, partial curve]
CC(=O)N1CCOc2ccc(S(=O)(=O)NCc3ccc(F)cc3)cc21	inactive
Cc1cc(C)c(C)c(S(=O)(=O)N2CCN(C(=O)c3ccccc3OCc3c(C)noc3C)CC2)c1C	active: 13.1 µM
c1ccc(-c2nnc(N3CCOCC3)c3ccccc23)cc1	inactive
O=C(N/N=C/c1ccccc1Cl)c1n[nH]c2c1CCCC2	inactive
Fc1ccc(N=C2NN=C(c3cc(F)ccc3F)CS2)cc1	inconclusive: 18.5 µM [inhibitor, single point]
CC1=C(C(=O)N2CCOCC2)C(c2cccc3ccccc23)NC(=S)N1 (configuration not stated)	inconclusive: 3.29 µM [inhibitor, single point]
COc1ccc(-n2nc(C(=O)NCC(=O)Nc3cccc(Cl)c3)c3ccccc3c2=O)cc1	active: 11.7 µM
CC1=C(C)CC(C(=O)NNC(=O)c2ccccc2)C(C(=O)O)C1 (configuration not stated)	inactive
CSc1nnc(Cn2c(=O)sc3ccccc32)n1CCc1ccccc1	active: 13.1 µM
COc1ccc(CCNc2nc(C)cc(C)n2)cc1OC	inactive
Cc1ccc(C(=O)Nn2cnnc2)cc1Cl	inactive
C/C(CC(=O)Nc1ccc(N(C)C)cc1)=N\NC(=O)Cc1csc(N)n1	inactive
CCOC(=O)C1=C(COC(=O)/C=C/c2ccc([N+](=O)[O-])cc2)NC(=O)NC1C (configuration not stated)	inactive
Fc1ccc(NC(=S)NCc2ccccc2)cc1	active: 14.7 µM
CCOc1ccccc1C(=O)NC(C(=O)N(C)Cc1ccc2c(c1)OCO2)C(C)C (configuration not stated)	inconclusive: 18.5 µM [inhibitor, single point]
CC(C)OP(=O)(OC(C)C)C1(O)C(=O)Nc2ccccc21 (configuration not stated)	active: 2.62 µM
O=C(CCCN1C(=O)S/C(=C\C=C\c2ccccc2)C1=O)Nc1ccc(C(=O)O)cc1	inconclusive: 2.62 µM [inhibitor, partial curve, poor fit]
O=C(O)c1ccccc1Sc1ccccc1S(=O)(=O)NC1CCCCC1	inconclusive: 16.5 µM [inhibitor, single point]
Cc1ccc(OCC(=O)NC2CCCC(C)C2C)c([N+](=O)[O-])n1 (configuration not stated)	inactive
Cc1ccc(OCCC(=O)OCC(=O)c2c(N)n(C)c(=O)n(C)c2=O)cc1	inconclusive: 18.5 µM [inhibitor, single point]

Compound	Potency
CN(C)CCNc1oc(-c2ccccc2F)nc1C#N	inconclusive: 18.5 µM [inhibitor, single point]
CCOC(=O)CSc1nc2ccc(Nc3nc(N4CCOCC4)nc(N4CCOCC4)n3)cc2s1	inactive
CC(=O)N1c2ccc(S(=O)(=O)N3CCC(C(=O)N4CCCCC4)CC3)cc2CC1C (configuration not stated)	inconclusive: 18.5 µM [inhibitor, partial curve, poor fit]
COCCN(Cc1nnc(-c2cccs2)o1)C(=O)c1cccc(S(=O)(=O)N2CCOCC2)c1	inconclusive: 14.7 µM [inhibitor, single point]
COc1ccccc1CNC(=S)Nc1cc(C)ccc1C	inconclusive: 18.5 µM [inhibitor, single point]
COc1cc(OC)cc(C(=O)NNC(=O)c2ccccc2Br)c1	inactive
CCN(Cc1ccccc1)C(c1cc2cc(C)ccc2[nH]c1=O)c1nnnn1CCOC (configuration not stated)	active: 11.7 µM
CCCN1C/C(=C/c2ccc3c(c2)OCO3)C(=O)/C(=C/c2ccc3c(c2)OCO3)C1	active: 1.85 µM
Oc1ccc2ccccc2c1C=Nc1ccccc1-c1nc2ccccc2[nH]1	inconclusive: 18.5 µM [inhibitor, single point]
CCN1C(=NCc2cc(OC)c(OC)c(OC)c2)N[C@@H](c2ccccc2)[C@H](C(=O)OC)[C@H]1C	inconclusive: 16.5 µM [inhibitor, single point]
Cc1cc(C)c2c(c1)cc(C)c1nnc(SCC(=O)N3CCCc4ccccc43)n12	active: 5.86 µM
CC(C)C(=O)Nc1c2c(nn1-c1ccc(F)cc1)CS(=O)(=O)C2	inactive
Cc1c(C(=O)N2CCCCC2)oc2ccc(S(=O)(=O)N3CC(C)CC(C)C3)cc12 (configuration not stated)	active: 11.7 µM
CCNc1c(N)c(=O)oc2ccccc12	inconclusive: 11.7 µM [inhibitor, single point]
Cc1nc2ccccc2nc1OCC(=O)NCc1ccc2c(c1)OCO2	inconclusive: 0.37 µM [inhibitor, partial curve, poor fit]
CCOc1ccc(NC(=S)Nc2ccc(OCc3ccccc3)cc2)cc1	inactive
COc1ccc(/C=N/NC(=O)c2ccc3ccccc3c2)cc1OS(=O)(=O)c1ccc(NC(C)=O)cc1	inconclusive: 6.57 µM [inhibitor, partial curve, poor fit]
COc1ccccc1-n1c(C)cc(SC)c(C(C)=O)c1=S	inconclusive: 10.4 µM [inhibitor, single point]
O=C(NCCc1cscn1)C1CCC(=O)N(Cc2ccc(Cl)cc2)C1 (configuration not stated)	inactive
N=c1c(S(=O)(=O)c2ccccc2)cc2c(=O)n3ccccc3nc2n1CC1CCCO1 (configuration not stated)	inconclusive: 13.1 µM [inhibitor, partial curve]
CC(C)COc1ccc(C(=O)Nc2ccc(NC(=O)c3ccco3)cc2)cc1	inactive
COC(=O)c1ccccc1C(=O)N1CCCC(CCC(=O)NCc2ccc(F)c(F)c2)C1 (configuration not stated)	inactive
CN(/C(=N\S(=O)(=O)c1ccccc1)c1ccccc1)c1ccc(O)cc1	inconclusive: 14.7 µM [inhibitor, partial curve, poor fit]
O=C(NC1CC1)c1cccc(NC(=O)c2cc(S(=O)(=O)N3CCOCC3)ccc2Cl)c1	inconclusive: 11.7 µM [inhibitor, single point]
